# Source: PubChem BioAssay AID493014 (National Center for Advancing Translational Sciences (NCATS), 2011)
# Some of the results follow. Shown are side measurements of this screen, not its main read-out; they come without a call. The list favours compounds with an active or inconclusive main result. The note in brackets gives the kind of curve behind each potency; many fits are weak.
# Assay: qHTS Assay to Find Inhibitors of Chronic Active B-Cell Receptor Signaling
# Conditions: ABC-DLBCL IkBa-CBG/CBR reporter, luminescence ratio (green luciferase fused to IkBa over red control in TMD8 lymphoma cells), 4 h
# Outline: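 Compounds up to 46 uM were incubated four hours with TMD8 cells whose green CBG68 luciferase is fused to IkappaBalpha; red CBR luminescence normalised the signal, and concentration-effect curves were fitted to fusion, red and ratio data.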
# [1] = measured here: CBR red luminescence, cell number
# [2] = measured here: IkBa-CBG green luminescence
SMILES,AC50 [1],AC50 [2]
CC(=O)c1ccc2c(c1)C1C(Cl)C(Sc3ccccc3[N+](=O)[O-])CC1C(c1ccccc1)N2 (stereo not drawn),"20.6 µM [falling, partial curve, poor fit]",–
CCn1c(N2CCN(CC(=O)c3c(C)n(C)c4ccccc34)CC2)nc2c1c(=O)[nH]c(=O)n2C,"1 µM [rising, partial curve, poor fit]",–
COP(=O)(OC)C(NC(=O)c1ccc(C)cc1)C(Cl)(Cl)Cl (stereo not drawn),"15.8 µM [rising, single point]",–
[O-]c1ccccc1-[n+]1c(-c2ccccc2)cc(-c2ccccc2)cc1-c1ccccc1,"23.1 µM [falling, single point]",–
Brc1ccc(-[n+]2c(-c3ccccc3)cc(-c3ccccc3)cc2-c2ccccc2)cc1,"29.1 µM [falling, single point]","32.6 µM [rising, partial curve, poor fit]"
CC1=CC2/C=C(\C)CCC(O)C(O)/C=C/C(=O)C23C(=O)NC(CC(C)C)C3C1C (stereo not drawn),"11.2 µM [falling, partial curve]",–
COCCN1C(=O)NC(=O)/C(=C\c2ccc(F)cc2)C1=O,"17.8 µM [rising, single point]",–
Cc1[nH][nH]c(=O)c1C(c1ccc(-c2cccc(Cl)c2)o1)c1c(C)[nH][nH]c1=O,"35.5 µM [falling, single point]",–
CCOc1cc2c(cc1OCC)-n1cccc1C(c1ccc(OC)c(O)c1)NC2 (stereo not drawn),"11.2 µM [falling, single point]",–
O=C1/C(=C/c2ccc([N+](=O)[O-])cc2)N2CCC1CC2,"7.31 µM [falling, partial curve, poor fit]",–
Cc1cc(C)nc(-n2c(C)nc3cc(Cl)ccc3c2=O)c1,"5.8 µM [rising, single point]",–
CN(C)C1(CNC(=O)c2cc(S(=O)(=O)N3CCOCC3)c(Cl)cc2Cl)CCCCC1,"0.731 µM [rising, partial curve, poor fit]",–
Cc1ccc(-n2c(O)c(C=NCCN3CCOCC3)c(=O)[nH]c2=O)cc1,"25.9 µM [rising, partial curve, poor fit]",–
O=[N+]([O-])c1ccc(Cl)c([N+](=O)[O-])c1,"20.6 µM [falling, partial curve]",–
CCOC(=O)[C@]1(C#N)[C@@H]2C=CC(C(C)=O)=CN2[C@@H](C(N)=O)[C@@H]1c1ccsc1,"3.26 µM [rising, partial curve, poor fit]",–
O=C1c2ccccc2S(=O)(=O)N1CCS(=O)(=O)c1ccc(F)cc1,"10 µM [falling, partial curve]",–
C=C1CC[C@@]2(O)[C@H]3Cc4ccc(O)c5c4[C@@]2(CCN3CC2CC2)[C@H]1O5,"6.51 µM [falling, single point]",–
Cc1nc2ccccc2c(=O)n1-c1ccc(Br)cc1[N+](=O)[O-],"5.01 µM [falling, single point]",–
COC(=O)C1=C(c2ccc(F)cc2OCc2ccccc2)C[C@@H]2CC[C@H]1N2C(=O)NCc1ccco1,"13 µM [falling, partial curve, poor fit]",–
COc1cc(/C=N/NP(=S)(c2ccccc2)c2ccccc2)ccc1O,"25.9 µM [falling, single point]",–

# Of the compounds above, these contain bromine:
SMILES,AC50 [1],AC50 [2]
Brc1ccc(-[n+]2c(-c3ccccc3)cc(-c3ccccc3)cc2-c2ccccc2)cc1,"29.1 µM [falling, single point]","32.6 µM [rising, partial curve, poor fit]"
Cc1nc2ccccc2c(=O)n1-c1ccc(Br)cc1[N+](=O)[O-],"5.01 µM [falling, single point]",–

# The listing continues:

SMILES,AC50 [1],AC50 [2]
O=C(Nc1ccc2ccccc2c1)c1ccc(Br)o1,"11.2 µM [falling, partial curve, poor fit]",–
C[C@H]1CCC[C@@H](O)CCC/C=C/c2cc(O)cc(O)c2C(=O)O1,"11.2 µM [falling, partial curve]","10 µM [falling, partial curve, poor fit]"
COCCOC(=O)C1=C(N)Oc2c(c(=O)oc3ccccc23)C1c1ccncc1 (stereo not drawn),"1.46 µM [falling, full curve]",–
COC(=O)C1=C(c2ccc3ccccc3c2)C[C@@H]2CC[C@H]1N2C(=O)NCc1ccc(F)cc1,"16.4 µM [falling, partial curve]",–
C=CC1CN2CCC1CC2[C@@H](OC(=O)c1ccc(OC)cc1)c1ccnc2ccccc12 (stereo partly drawn),"17.8 µM [falling, partial curve, poor fit]",–
Cc1cc(C)n(-c2nc(NCCCN(C)C)c3c4c(sc3n2)COC(C)(C)C4)n1,"17.8 µM [falling, partial curve, poor fit]",–
O=C(O)c1ccc(/C=C2\COc3ccccc3C2=O)cc1,"22.4 µM [falling, single point]",–
Cc1cc(=O)oc2cc(OCC(=O)N3CCN(Cc4ccccc4)CC3)ccc12,"29.1 µM [rising, single point]",–
C[C@]12CCC3C(CCC4=C/C(=N/OCC(=O)NC(CCC(=O)O)C(=O)O)CC[C@@]43C)C1CCC2O (stereo partly drawn),"0.1 µM [rising, full curve, poor fit]",–
O=C1C2CCCN2C(c2ccc(Cl)c(Cl)c2)N1c1ccccn1 (stereo not drawn),"20.6 µM [falling, partial curve, poor fit]",–
CN1CC=C2C(C#N)=C(N)C(C#N)(C#N)C(c3ccncc3)C2C1 (stereo not drawn),"0.58 µM [falling, full curve]","0.92 µM [rising, full curve, poor fit]"
C#CCN1C(=O)C2(C(C#N)=C(N)OC(C)=C2C(=O)OCc2ccccc2)c2ccccc21 (stereo not drawn),"20 µM [falling, partial curve, poor fit]",–
c1ccc(-c2[nH]c(-c3ccccc3)[n+](CC3CO3)c2-c2ccccc2)cc1 (stereo not drawn),"18.4 µM [falling, single point]",–
CCOC(C(=O)OCC(O)CN(CC)CC)(c1ccccc1)c1ccccc1 (stereo not drawn),"35.5 µM [falling, single point]",–
Cc1nc2cc(C(F)(F)F)ccc2n1C1CCN(Cc2nnnn2Cc2ccc3c(c2)OCO3)CC1,"23.1 µM [falling, single point]",–
CSCCC(NC(=O)CCC(=O)OC1CC[C@H]2[C@@H]3CC[C@H]4CC(=O)CC[C@]4(C)[C@H]3CC[C@]12C)C(=O)O (stereo partly drawn),"35.5 µM [falling, single point]",–
CCCCCCC(C)(C)c1ccc([C@@H]2C[C@H](O)CC[C@H]2CCCO)c(O)c1,"29.1 µM [falling, single point]",–
CCc1ccc(CN2CCN(Cc3cc(Br)ccc3O)CC2)cc1,"3.55 µM [falling, single point]",–
O=C(c1ccccc1)c1cc2ccccc2o1,"2.24 µM [rising, partial curve, poor fit]",–
Clc1ccccc1Nc1ncnc(-n2cccc2)n1,"12.6 µM [falling, partial curve, poor fit]",–

SMILES,AC50 [1],AC50 [2]
CC1CN(C)C(C)(C)CC1(O)c1ccccc1 (stereo not drawn),"29.1 µM [falling, single point]",–
COc1cc(C=C2C(=O)NC(=O)NC2=O)cc(OC)c1OC,"25.1 µM [rising, partial curve, poor fit]",–
O=C(NC12CC3CC(CC(C3)C1)C2)OC1CN2CCC1CC2 (stereo not drawn),"35.5 µM [falling, single point]",–
COc1cc2c(C(=O)O)c(C)n(C)c2cc1Br,"22.4 µM [rising, single point]",–
COC(=O)C1=C(c2ccc(-c3ccccc3)c(F)c2)C[C@@H]2CC[C@H]1N2C(=O)NCc1ccco1,"16.4 µM [falling, single point]",–
CC(C)(O)/C=C/C(=O)[C@](C)(O)C1[C@H](O)C[C@@]2(C)C3CC=C4C(C[C@H](O)[C@@H](O)C4(C)C)[C@]3(C)C(=O)C[C@]12C (stereo partly drawn),"29.1 µM [falling, single point]",–
Cc1cccc(-c2cccc(NC(=O)C3CCCN(Cc4cccnc4)C3)c2)c1 (stereo not drawn),"12.6 µM [falling, partial curve]",–
CNC(=O)Oc1cccc2ccccc12,"7.94 µM [rising, partial curve, poor fit]",–
c1cnc2c(c1)ccc1ncccc12,"2.82 µM [falling, full curve]",–
O=C1Nc2ccccc2/C1=C/c1cnc[nH]1,"7.94 µM [rising, partial curve, poor fit]",–
Cc1ccc(CN2CCSc3ccc(C(=O)N4CCC5(CC4)OCCO5)cc32)cc1,"12.6 µM [falling, single point]",–
CCCCn1c(O)c(C(C)=Nc2cccc(C(=O)O)c2)c(=O)[nH]c1=O,"2.31 µM [rising, partial curve, poor fit]",–
Cc1cc(C)c(C(=O)CN2CCOCC2)c(C)c1,–,"16.4 µM [falling, partial curve]"
Cc1nc2ccccn2c1P(=S)(N1CCCCC1)N1CCCCC1,"0.58 µM [rising, full curve, poor fit]",–
C/C(=N\Nc1ccccc1)c1c(O)[nH]c(=O)[nH]c1=O,"14.1 µM [rising, single point]",–
CC1CC2(O)c3nonc3CCC2N1O (stereo not drawn),"29.1 µM [rising, single point]",–
COc1ccccc1-n1c(-c2ccccc2Br)nc2ccccc2c1=O,"22.4 µM [falling, partial curve, poor fit]",–
Cn1cc(C(=O)OCC(=O)N2CCCC2)c2ccccc21,"11.6 µM [falling, partial curve]",–
CN(C(=O)Oc1ccc([N+](=O)[O-])cc1)c1ccccc1,"6.51 µM [rising, partial curve, poor fit]",–
CC1CCN(S(=O)(=O)c2ccc(C(=O)Nc3nnc(-c4ccncc4)o3)cc2)CC1,"22.4 µM [falling, partial curve, poor fit]",–
